In PMC7672075:

Assays:
[1] = molecular target: TRF2^TRFH (TRF Homology domain of human TRF2, residues 42–245) (human); assay: crystal structure; TRF2^TRFH and MCPH1^TBM mixed at a molar ratio of 1:2; 100 mM CHES-NaOH pH 9.5, 30% PEG400, 293K; 2.15 Å, molecular replacement; both purified
Myc-hTRF2 (human) = assay: co-IP; 293T cells co-transfected with FLAG-MCPH1 constructs and Myc-hTRF2 or Myc-hTRF2^F120A; lysed in BC300 buffer (300 mM KCl, 0.5% NP-40); Myc antibody-conjugated agarose beads; MCPH1^ΔBRCT cells and a WT control treated with 12.5 μM MG132
Myc-hTRF2^F120A (human) = assay: as above
[2] = molecular target: TRF2^TRFH (TRF Homology domain of human TRF2, residues 42–245) (human); assay: condition: 1.0 mM peptide in the syringe, 0.1 mM TRF2^TRFH in the cell; ITC; MCPH1^TBM peptides at 1.0 mM in the syringe titrated into TRF2^TRFH at 0.1 mM in the sample cell; 20 °C; 25 mM Tris-HCl pH 8.0, 150 mM NaCl; both purified

SQETFEEKYRLSPTLSSTKGH (peptide, UniProt Q8NEM0 322-342) [MCPH1^TBM peptide (residues 322–342), recombinant]
binding [1]: binds

B1: FLAG-MCPH1^S333A (protein, UniProt Q8NEM0 1-835)
chain: MAAPILKDVVAYVEVWSSNGTENYSKTFTTQLVDMGAKVSKTFNKQVTHVIFKDGYQSTWDKAQKRGVKLVSVLWVEKCRTAGAHIDESLFPAANMNEHLSSLIKKKRKCMQPKDFNFKTPENDKRFQKKFEKMAKELQRQKTNLDDDVPILLFESNGSLIYTPTIEINSRHHSAMEKRLQEMKEKRENLSPTSSQMIQQSHDNPSNSLCEAPLNISRDTLCSDEYFAGGLHSSFDDLCGNSGCGNQERKLEGSINDIKSDVCISSLVLKANNIHSSPSFTHLDKSSPQKFLSNLSKEEINLQRNIAGKVVTPDQKQAAGMSQETFEEKYRLAPTLSSTKGHLLIHSRPRSSSVKRKRVSHGSHSPPKEKCKRKRSTRRSIMPRLQLCRSEDRLQHVAGPALEALSCGESSYDDYFSPDNLKERYSENLPPESQLPSSPAQLSCRSLSKKERTSIFEMSDFSCVGKKTRTVDITNFTAKTISSPRKTGNGEGRATSSCVTSAPEEALRCCRQAGKEDACPEGNGFSYTIEDPALPKGHDDDLTPLEGSLEEMKEAVGLKSTQNKGTTSKISNSSEGEAQSEHEPCFIVDCNMETSTEEKENLPGGYSGSVKNRPTRHDVLDDSCDGFKDLIKPHEELKKSGRGKKPTRTLVMTSMPSEKQNVVIQVVDKLKGFSIAPDVCETTTHVLSGKPLRTLNVLLGIARGCWVLSYDWVLWSLELGHWISEEPFELSHHFPAAPLCRSECHLSAGPYRGTLFADQPAMFVSPASSPPVAKLCELVHLCGGRVSQVPRQASIVIGPYSGKKKATVKYLSEKWVLDSITQHKVCAPENYLLSQ
binding (Myc-hTRF2 (human)): binds

B2: FLAG-tagged WT MCPH1 (human) (protein, UniProt Q8NEM0 1-835)
chain: MAAPILKDVVAYVEVWSSNGTENYSKTFTTQLVDMGAKVSKTFNKQVTHVIFKDGYQSTWDKAQKRGVKLVSVLWVEKCRTAGAHIDESLFPAANMNEHLSSLIKKKRKCMQPKDFNFKTPENDKRFQKKFEKMAKELQRQKTNLDDDVPILLFESNGSLIYTPTIEINSRHHSAMEKRLQEMKEKRENLSPTSSQMIQQSHDNPSNSLCEAPLNISRDTLCSDEYFAGGLHSSFDDLCGNSGCGNQERKLEGSINDIKSDVCISSLVLKANNIHSSPSFTHLDKSSPQKFLSNLSKEEINLQRNIAGKVVTPDQKQAAGMSQETFEEKYRLSPTLSSTKGHLLIHSRPRSSSVKRKRVSHGSHSPPKEKCKRKRSTRRSIMPRLQLCRSEDRLQHVAGPALEALSCGESSYDDYFSPDNLKERYSENLPPESQLPSSPAQLSCRSLSKKERTSIFEMSDFSCVGKKTRTVDITNFTAKTISSPRKTGNGEGRATSSCVTSAPEEALRCCRQAGKEDACPEGNGFSYTIEDPALPKGHDDDLTPLEGSLEEMKEAVGLKSTQNKGTTSKISNSSEGEAQSEHEPCFIVDCNMETSTEEKENLPGGYSGSVKNRPTRHDVLDDSCDGFKDLIKPHEELKKSGRGKKPTRTLVMTSMPSEKQNVVIQVVDKLKGFSIAPDVCETTTHVLSGKPLRTLNVLLGIARGCWVLSYDWVLWSLELGHWISEEPFELSHHFPAAPLCRSECHLSAGPYRGTLFADQPAMFVSPASSPPVAKLCELVHLCGGRVSQVPRQASIVIGPYSGKKKATVKYLSEKWVLDSITQHKVCAPENYLLSQ
binding (Myc-hTRF2^F120A (human)): no binding
binding (Myc-hTRF2 (human)): binds

SQETFEEKARLSPTLSSTKGH (peptide, UniProt Q8NEM0 322-342) [MCPH1^TBM peptide Y330A, synthetic]
binding [2]: no binding

SQETFEEKERLSPTLSSTKGH (peptide, UniProt Q8NEM0 322-342) [MCPH1^TBM peptide Y330E, synthetic]
binding [2]: no binding

SQETFEEKYRASPTLSSTKGH (peptide, UniProt Q8NEM0 322-342) [MCPH1^TBM peptide L332A, synthetic]
binding [2]: no binding

B3: FLAG-MCPH1^(Y330A, L332A) (protein, UniProt Q8NEM0 1-835)
chain: MAAPILKDVVAYVEVWSSNGTENYSKTFTTQLVDMGAKVSKTFNKQVTHVIFKDGYQSTWDKAQKRGVKLVSVLWVEKCRTAGAHIDESLFPAANMNEHLSSLIKKKRKCMQPKDFNFKTPENDKRFQKKFEKMAKELQRQKTNLDDDVPILLFESNGSLIYTPTIEINSRHHSAMEKRLQEMKEKRENLSPTSSQMIQQSHDNPSNSLCEAPLNISRDTLCSDEYFAGGLHSSFDDLCGNSGCGNQERKLEGSINDIKSDVCISSLVLKANNIHSSPSFTHLDKSSPQKFLSNLSKEEINLQRNIAGKVVTPDQKQAAGMSQETFEEKARASPTLSSTKGHLLIHSRPRSSSVKRKRVSHGSHSPPKEKCKRKRSTRRSIMPRLQLCRSEDRLQHVAGPALEALSCGESSYDDYFSPDNLKERYSENLPPESQLPSSPAQLSCRSLSKKERTSIFEMSDFSCVGKKTRTVDITNFTAKTISSPRKTGNGEGRATSSCVTSAPEEALRCCRQAGKEDACPEGNGFSYTIEDPALPKGHDDDLTPLEGSLEEMKEAVGLKSTQNKGTTSKISNSSEGEAQSEHEPCFIVDCNMETSTEEKENLPGGYSGSVKNRPTRHDVLDDSCDGFKDLIKPHEELKKSGRGKKPTRTLVMTSMPSEKQNVVIQVVDKLKGFSIAPDVCETTTHVLSGKPLRTLNVLLGIARGCWVLSYDWVLWSLELGHWISEEPFELSHHFPAAPLCRSECHLSAGPYRGTLFADQPAMFVSPASSPPVAKLCELVHLCGGRVSQVPRQASIVIGPYSGKKKATVKYLSEKWVLDSITQHKVCAPENYLLSQ
binding (Myc-hTRF2 (human)): no binding

Results are given in words; binding and its absence hold for the method and conditions named. For some assays here: Binding calls can cover weak binding; strength is not graded here. For some assays here: In cells and extracts the contact can be indirect. For some assays here: Where a sequence is shown, tags or fusion partners need not be part of it.
